PMC12431657, “Discovery and mechanistic insights of dibenzoylmethane as a broad spectrum inhibitor of coronavirus” (PLOS Pathogens, 2025)
Counter-ions that a name gives are not always drawn. Like-named read-outs stand apart in the source and are kept apart here. Hit rate of the full screen: of about 3,300 compounds, about 60 (2%) showed an effect of 50% or more. The list shows a part of the results.

System: HCoV-OC43
Design: species or system RD; HTS, protection from HCoV-OC43 induced cell death, luminescent cell viability (CellCounting-Lite 2.0), inhibition rate
Conditions: 24 h post infection, 1 h compound pre-incubation, 10 µM, inhibitor

| Structure (SMILES) | OC43 Inhibition rate | OC43 Inhibition rate (OC43 Inhibition rate, 24 h) |
| --- | --- | --- |
| NC[C@H](O)c1ccc(O)c(O)c1 [Norepinephrine (hydrochloride)] | 1.5% | – |
| O[C@H]1[C@H](O)[C@@H](O)CN2CC[C@H](O)[C@H]12 [Castanospermine] | 0.4% | – |
| OC[C@@H](O)[C@@H](O[C@H]1O[C@H](CO)[C@@H](O)[C@H](O)[C@H]1O)[C@H](O)[C@@H](O)CO [Maltitol] | 5.9% | – |
| CCC1=C[C@@H]2CN3CCc4c([nH]c5ccccc45)[C@@](C(=O)OC)(C2)[C@@H]13 [Catharanthine] | 23.2% | – |
| COc1ccc(C(C)=O)c(O)c1O [2,3-Dihydroxy-4-methoxyacetophenone] | -1.2% | – |
| O=c1c(O[C@@H]2O[C@H](CO)[C@@H](O)[C@H](O)[C@H]2O)c(-c2ccc(O)c(O)c2)oc2cc(O)cc(O)c12 [Isoquercetin] | – | -1.3% |
| O=c1c(O)c(-c2ccc(O)cc2)oc2cc(O)cc(O)c12 [Kaempferol] | -0.2% | – |
| COc1cc(C=O)cc(OC)c1O [Syringaldehyde] | 0% | – |
| COc1cccc(C(=O)O)c1 [3-Methoxybenzoic acid] | -0.1% | – |
| C[C@@H]1O[C@@H](O[C@H]2CC[C@]3(C=O)[C@H]4CC[C@]5(C)[C@@H](C6=CC(=O)OC6)CC[C@]5(O)[C@@H]4CC[C@]3(O)C2)[C@H](O)[C@H](O)[C@H]1O [Convallatoxin] | 3.2% | – |
| COC(=O)C1=CO[C@@H](O[C@@H]2O[C@H](CO)[C@@H](O)[C@H](O)[C@H]2O)[C@H]2[C@@H]1C(=O)C[C@@H]2C [Verbenalin] | -0.1% | – |
| COC(=O)C1=COC(O[C@@H]2O[C@H](CO)[C@@H](O)[C@H](O)[C@H]2O)/C(=C/C(=O)O)C1CC(=O)OCCc1ccc(O)c(O)c1 (some centres unmarked) [Oleuropeinic acid] | 0.1% | – |
| COc1cc(OC)c2ccc(=O)oc2c1 [Citropten] | 6.8% | – |
| N[C@H]1CONC1=O [L-Cycloserine] | 0.1% | – |
| C=C[C@@H]1C2=CCOC(=O)C2=CO[C@H]1O[C@@H]1O[C@H](CO)[C@@H](O)[C@H](O)[C@H]1O [Gentiopicroside] | -3.9% | – |
| c1c2c(cc3c1OCO3)-c1cc3cc4c(cc3c[n+]1CC2)OCO4 [Pseudocoptisine (chloride)] | 0.8% | – |
| O=c1ccoc2cc(O)cc(O)c12 [5,7-Dihydroxychromone] | -0.3% | – |
| CSC[C@H]1O[C@@H](n2cnc3c(N)ncnc32)[C@H](O)[C@@H]1O [5'-Methylthioadenosine] | 0.3% | – |
| O=C(/C=C/c1ccc(O)c(O)c1)OC1(C(=O)O)C[C@@H](O)C(O)[C@H](O)C1 (some centres unmarked) [1-Caffeoylquinic acid] | -0.5% | – |
| NC[C@H]1O[C@H](O[C@H]2[C@H](O)[C@@H](O[C@H]3O[C@H](CO)[C@@H](O)[C@H](N)[C@H]3O)[C@H](N)C[C@@H]2N)[C@H](N)C[C@@H]1O [Tobramycin] | 5.3% | – |

| Structure (SMILES) | OC43 Inhibition rate | OC43 Inhibition rate (OC43 Inhibition rate, 24 h) |
| --- | --- | --- |
| Cc1cc(O)cc(O[C@@H]2O[C@H](CO)[C@@H](O)[C@H](O)[C@H]2O)c1 [Orcinol glucoside] | -0.9% | – |
| O=C(O)C1=CO[C@@H](O[C@@H]2O[C@H](CO)[C@@H](O)[C@H](O)[C@H]2O)[C@@H]2C(CO)=C[C@H](O)[C@H]12 [Deacetylasperulosidic Acid] | 0.6% | – |
| C[C@@H]1C(=O)O[C@H]2C[C@]34[C@@H]5OC(=O)[C@]3(O[C@@H]3OC(=O)[C@H](O)[C@@]34[C@H](C(C)(C)C)[C@H]5O)[C@]21O [Ginkgolide J] | -1.1% | – |
| C[C@@H]1O[C@@H](O[C@@H]2C(=O)c3c(O)cc(O)cc3O[C@H]2c2cc(O)cc(O)c2)[C@H](O)[C@H](O)[C@H]1O [Neosmitilbin] | 0% | – |
| CC(C)(O[C@@H]1O[C@H](CO)[C@@H](O)[C@H](O)[C@H]1O)[C@@H]1CC[C@](C)([C@H]2[C@@H](O)C[C@@]3(C)[C@@H]4C[C@H](O)[C@H]5C(C)(C)[C@@H](O[C@@H]6OC[C@@H](O)[C@H](O)[C@H]6O)CC[C@@]56C[C@@]46CC[C@]23C)O1 [Isoastragaloside IV] | -0.3% | – |
| Nc1ccccc1C(=O)C[C@H](N)C(=O)O [L-Kynurenine] | – | 0.4% |
| O=C(O)CNCC(=O)O [Iminodiacetic acid] | -0.8% | – |
| CC(C)CCC[C@@H](C)[C@H]1CC[C@H]2C3=CC=C4C[C@@H](O)CC[C@]4(C)[C@H]3CC[C@]12C [7-Dehydrocholesterol] | 44.4% | – |
| CCCCCCCCCC[C@H](C(=O)O)[C@]1(C(=O)O)CCC(=O)O1 [Spiculisporic acid] | 0.5% | – |
| CC(C)=CCc1c(O)cc(O)c2c(=O)cc(-c3ccc(O)cc3)oc12 [Licoflavone C] | 7.3% | – |
| CC(C)(O)[C@@H]1CC[C@](C)([C@H]2[C@@H](O)C[C@@]3(C)[C@@H]4C[C@H](O)[C@H]5C(C)(C)[C@@H](O)CC[C@@]56C[C@@]46CC[C@]23C)O1 [Cycloastragenol] | 0.7% | – |
| C[C@@H]1C/C=C/C=C/C=C/C=C/[C@H](O[C@@H]2O[C@H](C)[C@@H](O)[C@H](N)[C@@H]2O)C[C@@H]2O[C@](O)(C[C@@H](O)C[C@H]3O[C@@H]3/C=C/C(=O)O1)C[C@H](O)[C@H]2C(=O)O [Natamycin] | -0.1% | – |
| CC(=O)c1c(C)cc2cccc(O)c2c1O [Nepodin] | -1.8% | – |
| CC(C(O)c1ccc(O)cc1)N1CCC(Cc2ccccc2)CC1 (centres unmarked) [Ifenprodil (tartrate)] | 0.1% | – |
| Nc1ncnc2c1ncn2[C@@H]1O[C@H](COP(=O)(O)OP(=O)(O)OP(=O)(O)O)[C@@H](O)[C@H]1O [ATP (disodium trihydrate)] | – | -1.2% |
| CC1(C)CC[C@]2(C(=O)O)CC[C@]3(C)C(=CC[C@@H]4[C@@]5(C)C[C@@H](O)[C@H](O)[C@@](C)(CO)[C@@H]5CC[C@]43C)[C@@H]2[C@@H]1O [Arjungenin] | 0.8% | – |
| O=c1ccn([C@@H]2O[C@H](COP(=O)(O)OP(=O)(O)O)[C@@H](O)[C@H]2O)c(=O)[nH]1 [Uridine-5'-diphosphate disodium salt] | 5.4% | – |
| COc1cc(O)c2c(=O)c(OC)c(-c3ccc(OC)c(OC)c3)oc2c1 [Retusin] | 11.5% | – |
| O=c1cc(-c2ccccc2)oc2ccccc12 [Flavone] | 0.3% | – |
| CN(C)CCc1ccc(O)cc1 [Hordenine] | -0.7% | – |

Reformatted as tab-separated lines: part of the list above.
Structure (SMILES)	OC43 Inhibition rate	OC43 Inhibition rate (OC43 Inhibition rate, 24 h)
CC(C)(O[C@@H]1O[C@H](CO)[C@@H](O)[C@H](O)[C@H]1O)[C@@H]1CC[C@](C)([C@H]2[C@@H](O)C[C@@]3(C)[C@@H]4C[C@H](O)[C@H]5C(C)(C)[C@@H](O[C@@H]6OC[C@@H](O)[C@H](O)[C@H]6O)CC[C@@]56C[C@@]46CC[C@]23C)O1 [Isoastragaloside IV]	-0.3%	–
Nc1ccccc1C(=O)C[C@H](N)C(=O)O [L-Kynurenine]	–	0.4%
O=C(O)CNCC(=O)O [Iminodiacetic acid]	-0.8%	–
CC(C)CCC[C@@H](C)[C@H]1CC[C@H]2C3=CC=C4C[C@@H](O)CC[C@]4(C)[C@H]3CC[C@]12C [7-Dehydrocholesterol]	44.4%	–
CCCCCCCCCC[C@H](C(=O)O)[C@]1(C(=O)O)CCC(=O)O1 [Spiculisporic acid]	0.5%	–
CC(C)=CCc1c(O)cc(O)c2c(=O)cc(-c3ccc(O)cc3)oc12 [Licoflavone C]	7.3%	–
CC(C)(O)[C@@H]1CC[C@](C)([C@H]2[C@@H](O)C[C@@]3(C)[C@@H]4C[C@H](O)[C@H]5C(C)(C)[C@@H](O)CC[C@@]56C[C@@]46CC[C@]23C)O1 [Cycloastragenol]	0.7%	–
C[C@@H]1C/C=C/C=C/C=C/C=C/[C@H](O[C@@H]2O[C@H](C)[C@@H](O)[C@H](N)[C@@H]2O)C[C@@H]2O[C@](O)(C[C@@H](O)C[C@H]3O[C@@H]3/C=C/C(=O)O1)C[C@H](O)[C@H]2C(=O)O [Natamycin]	-0.1%	–
CC(=O)c1c(C)cc2cccc(O)c2c1O [Nepodin]	-1.8%	–
CC(C(O)c1ccc(O)cc1)N1CCC(Cc2ccccc2)CC1 (centres unmarked) [Ifenprodil (tartrate)]	0.1%	–
Nc1ncnc2c1ncn2[C@@H]1O[C@H](COP(=O)(O)OP(=O)(O)OP(=O)(O)O)[C@@H](O)[C@H]1O [ATP (disodium trihydrate)]	–	-1.2%

Further structures follow:

| Structure (SMILES) | OC43 Inhibition rate | OC43 Inhibition rate (OC43 Inhibition rate, 24 h) |
| --- | --- | --- |
| C=C1C(=O)O[C@@]23[C@H]1CC[C@@H](C)[C@@H]2CC[C@@]1(C)O[C@@H]31 [Arteannuin B] | 2.2% | – |
| O=C(CO)[C@@H](O)[C@H](O)[C@H](O)CO [Fructose] | – | -0.7% |
| COc1cc2c(cc1O)CCN1Cc3c(ccc(OC)c3OC)C[C@@H]21 [Corypalmine] | 2.8% | – |
| C=C(CC(=O)O)C(=O)O [Itaconic acid] | 6.9% | – |
| CC(=O)O[C@@H]1[C@H]2[C@H]3C[C@H]4C5=Nc6ccccc6[C@]51C[C@@H]2N4[C@H](C)C3C=O (some centres unmarked) [Perakine] | 1.7% | – |
| Cc1c(O)c(C)c2c(c1O)C(=O)C[C@@H](c1ccc(O)cc1)O2 [Farrerol] | 1.4% | – |
| CC(C)=CCC1=C(O)C(=O)c2ccccc2C1=O [Lapachol] | 27.9% | – |
| O=C(O)c1c(O)cc(O)cc1O [2,4,6-Trihydroxybenzoic acid] | 0.8% | – |
| O=C(OC[C@H]1O[C@@H](OC(=O)c2cc(O)c(O)c(O)c2)[C@H](OC(=O)c2cc(O)c(O)c(O)c2)[C@@H](OC(=O)c2cc(O)c(O)c(O)c2)[C@@H]1OC(=O)c1cc(O)c(O)c(O)c1)c1cc(O)c(O)c(O)c1 [Pentagalloylglucose] | 0.3% | – |
| CCCCC/C=C/C=C/C=O [trans,trans-2,4-Decadienal] | -1.8% | – |
| CN[C@@H]1[C@@H](O[C@H]2O[C@H](CO)[C@@H](N)[C@H](O)[C@H]2O)O[C@H]2C[C@@H](N)[C@@H](O[C@H]3[C@H](O)[C@@H](O)[C@H](N)C[C@@H]3N)O[C@@H]2[C@@H]1O [Apramycin (sulfate)] | -0.2% | – |
| C=CCc1ccc(O)c(-c2ccc(OC)c(CC=C)c2)c1 [4-O-Methyl honokiol] | 1.6% | – |
| COC(=O)C1=CO[C@@H](O)[C@@H]2C(CO)=CC[C@H]12 [Genipin] | 0.1% | – |
| O=c1c2c3c(ccc2cc2n1CCc1cc4c(cc1-2)OCO4)OCO3 [8-Oxocoptisine] | -0.2% | – |
| C[C@@H]1O[C@@H](O[C@@H]2[C@@H](O)[C@H](OCCc3ccc(O)c(O)c3)O[C@H](COC(=O)/C=C/c3ccc(O)c(O)c3)[C@H]2O)[C@H](O)[C@H](O)[C@H]1O [Isoacteoside] | -1% | – |
| O=C(/C=C/c1ccc(O)c2c1[C@H](C(=O)O)[C@@H](c1ccc(O)c(O)c1)O2)O[C@H](Cc1ccc(O)c(O)c1)C(=O)O [Lithospermic acid] | -1.1% | – |
| OC1OC[C@@H](O[C@@H]2OC[C@@H](O[C@@H]3OC[C@@H](O)[C@H](O)[C@H]3O)[C@H](O)[C@H]2O)[C@H](O)[C@H]1O (some centres unmarked) [Xylotriose] | -0.2% | – |
| CC(C)[C@]12O[C@H]1[C@@H]1O[C@]13[C@]1(O[C@H]1C[C@H]1C4=C(CC[C@@]13C)C(=O)OC4)[C@@H]2O [Triptolide] | 10.5% | – |
| CCCCC/C=C/C=C/C(=O)NCC(C)C [Pellitorine] | 5.3% | – |
